Data as given in PubChem BioAssay AID1259254 (NCATS, 2017)

Purpose: 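Genome-wide screen for genes that prevent DNA re-replication in cancer cells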 (primary screen)
Cell system: human HCT116 colorectal cancer cells
Reagents: single siRNA against human genes
Duration: 3 days
Detection: 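Imaged Hoechst DNA stain sorts each cell into a cycle phase by DNA amount; per plate, G2 fraction set to 0% for non-targeting and 100% for GMNN siRNA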
Reading the numbers: G2 robust z-score and G2 cells, % of GMNN control: higher = more G2 cells, more excess DNA replication
Active means: 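An siRNA counts as active if its G2 robust z-score lies at least 5 MADs above the screen median; here such calls match roughly 38% of GMNN control or more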
The whole screen tested about 59,000 reagents; shown is a random part of them. About 1,550 of them (2.6%) were called active. 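G2 share is only a proxy for re-replication; each gene was hit by three separate siRNAs, and active genes were retested.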 Entries without a mark were called inactive. The numbers tell different reagents against one gene apart. Not all columns of the deposit are shown. Not given: the amount of reagent.

Depletion of MYH8 (myosin heavy chain 8) #1 gave: G2 robust z-score -1; G2 cells, % of GMNN control -4.1. For MYH8 (myosin heavy chain 8) #2, the values are G2 robust z-score 0.152; G2 cells, % of GMNN control 4.04. After knock-down of MYH8 (myosin heavy chain 8) #3 the results were G2 robust z-score -0.108; G2 cells, % of GMNN control 2.21. For HSBP1L1 (heat shock factor binding protein 1 like 1) #1 the deposit lists G2 robust z-score -0.447; G2 cells, % of GMNN control -0.178. HSBP1L1 (heat shock factor binding protein 1 like 1) #2 gave G2 robust z-score -1.04; G2 cells, % of GMNN control -4.34. After knock-down of HSBP1L1 (heat shock factor binding protein 1 like 1) #3, the screen gave G2 robust z-score 1.04; G2 cells, % of GMNN control 10.3.

REN (renin) #1 scored G2 robust z-score 4.35; G2 cells, % of GMNN control 33.6. Against REN (renin) #2 the deposit lists G2 robust z-score 1.89; G2 cells, % of GMNN control 16.2. For REN (renin) #3, the entry reads G2 robust z-score -0.772; G2 cells, % of GMNN control -2.46. Depletion of ZMYM1 (zinc finger MYM-type containing 1) #1 came out at: G2 robust z-score 0.415; G2 cells, % of GMNN control 5.89. Knock-down of ZMYM1 (zinc finger MYM-type containing 1) #2 gave: G2 robust z-score 0.96; G2 cells, % of GMNN control 9.72. ZMYM1 (zinc finger MYM-type containing 1) #3 scored G2 robust z-score -0.966; G2 cells, % of GMNN control -3.83.

Against LLGL2 (LLGL scribble cell polarity complex component 2) #1 the deposit lists G2 robust z-score -0.241; G2 cells, % of GMNN control 1.27. LLGL2 (LLGL scribble cell polarity complex component 2) #2 scored G2 robust z-score -0.878; G2 cells, % of GMNN control -3.21. For LLGL2 (LLGL scribble cell polarity complex component 2) #3, the values are G2 robust z-score 1.16; G2 cells, % of GMNN control 11.1.

Entries above whose gene name starts with H or h:
HSBP1L1 (heat shock factor binding protein 1 like 1) #1 — G2 robust z-score = -0.447; G2 cells, % of GMNN control = -0.178
HSBP1L1 (heat shock factor binding protein 1 like 1) #2 — G2 robust z-score = -1.04; G2 cells, % of GMNN control = -4.34
HSBP1L1 (heat shock factor binding protein 1 like 1) #3 — G2 robust z-score = 1.04; G2 cells, % of GMNN control = 10.3

More records follow.
After knock-down of PSMA5 (proteasome 20S subunit alpha 5) #1, the record shows G2 robust z-score 3.96; G2 cells, % of GMNN control 30.8. Silencing of PSMA5 (proteasome 20S subunit alpha 5) #2 resulted in: G2 robust z-score 2.23; G2 cells, % of GMNN control 18.7. After knock-down of PSMA5 (proteasome 20S subunit alpha 5) #3, the screen gave G2 robust z-score 3.68; G2 cells, % of GMNN control 28.9. Knock-down of SLC7A2 #1 gave: G2 robust z-score -1.06; G2 cells, % of GMNN control -4.46. For SLC7A2 #2, the entry reads G2 robust z-score 0.173; G2 cells, % of GMNN control 4.19. SLC7A2 #3 showed G2 robust z-score -0.869; G2 cells, % of GMNN control -3.14.

With knock-down of NANOG (Nanog homeobox) #1, the screen gave G2 robust z-score -0.528; G2 cells, % of GMNN control -0.744. NANOG (Nanog homeobox) #2 showed G2 robust z-score -0.581; G2 cells, % of GMNN control -1.12. NANOG (Nanog homeobox) #3 showed G2 robust z-score -0.267; G2 cells, % of GMNN control 1.09.
